Assay results reported in article PMC10216065.
These are yes or no findings as the source states them, for the method shown.

Molecular target: E. coli SufE (E. coli) (UniProt P76194)
Assay: cross-linking; disulfide-linked species without H2O2; SDS-PAGE under reducing (+DTT) and non-reducing (-DTT) conditions; both purified

binding: no binding (condition: without H2O2)
B1: E. coli SufE (protein, UniProt P76194 1-138)
chain: MALLPDKEKLLRNFLRCANWEEKYLYIIELGQRLPELRDEDRSPQNSIQGCQSQVWIVMRQNAQGIIELQGDSDAAIVKGLIAVVFILYDQMTPQDIVNFDVRPWFEKMALTQHLTPSRSQGLEAMIRAIRAKAAALS
